Article PMC8209004, “Structural basis of GTPase-mediated mitochondrial ribosome biogenesis and recycling” (Nature Communications, 2021)
No constants are given. Whether binding was seen depends on the method and setting. Some binding calls cover weakened binding; strength is not graded here.

Amino acid sequences for entries named in this document (tags omitted). Residues count along the entry.
UniProt Q96CB9, residues 26-384: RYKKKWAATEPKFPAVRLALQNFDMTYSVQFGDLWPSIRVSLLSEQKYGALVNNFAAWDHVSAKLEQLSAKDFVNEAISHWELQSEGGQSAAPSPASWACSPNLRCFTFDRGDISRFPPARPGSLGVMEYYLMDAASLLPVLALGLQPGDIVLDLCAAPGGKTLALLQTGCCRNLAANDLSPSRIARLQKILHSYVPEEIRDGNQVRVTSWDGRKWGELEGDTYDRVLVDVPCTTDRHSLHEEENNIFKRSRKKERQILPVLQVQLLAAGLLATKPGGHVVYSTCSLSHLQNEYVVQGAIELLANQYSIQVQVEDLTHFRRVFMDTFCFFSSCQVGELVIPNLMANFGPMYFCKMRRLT

Biological target: T1, MTERF4 (human) (UniProt Q7Z6M4)
T1 sequence: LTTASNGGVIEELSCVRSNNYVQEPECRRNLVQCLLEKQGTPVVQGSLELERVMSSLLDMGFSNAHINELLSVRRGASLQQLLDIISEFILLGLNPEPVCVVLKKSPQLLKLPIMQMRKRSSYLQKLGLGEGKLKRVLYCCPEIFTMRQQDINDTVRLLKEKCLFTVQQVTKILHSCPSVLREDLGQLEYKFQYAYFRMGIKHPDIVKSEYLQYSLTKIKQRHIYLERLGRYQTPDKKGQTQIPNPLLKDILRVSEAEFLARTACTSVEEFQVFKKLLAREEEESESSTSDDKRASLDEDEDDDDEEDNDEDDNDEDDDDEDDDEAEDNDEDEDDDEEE
Test: cryo-EM structure; native mtLSU assembly intermediates purified from Gtpbp6-/- HEK293 cells (dataset 1; the same two states seen again in dataset 2); reconstructions at 2.2 and 2.5 Å

For “NSUN4 (from UniProt Q96CB9 26-384) (enzyme)”, the binding was “binds”.
